Measured values: patent publication EP0374919A1, “Morphine derivative” (Chugai Seiyaku Kabushiki Kaisha, priority 1988, dated 1990)

Tested on: extirpated guinea pig ileum pieces
Test: Transmural electric stimulation test on an extirpated guinea pig ileum piece (smooth muscle contraction)
Type: cell-based
Method: Example 7 Transmural Electric Stimulation Test on an Extirpated Guinea Pig Ileum Piece:
The effects of the compounds were examined by applying transmural electric stimulation (0.1 Hz) to extirpated guinea pig ileum pieces while using the smooth muscle contraction as an indication [refer to H.K. Kopsterlitz, A.A. Waterfield; Annu. Rev. Pharmacol., 15, 29 - 47 (1975)].
The data shown in Table 1 were calculated according to a method reported by Arunlakshana and Schild [refer to 0. Arunlakashana, H.O. Schild; Brit. J. Pharmacol., 14, 48 - 58 (1959)]. Each value is expressed in mean ± standard deviation.

[1] = slope belonging to pA₂ (naloxone), method of Arunlakshana and Schild, mean ± standard deviation

| Compound | Slope [1] | Slope |
| --- | --- | --- |
| CC(=O)S[C@@H]1C=C[C@H]2[C@H]3Cc4ccc(O)c5c4[C@@]2(CCN3CC2CC2)[C@H]1O5 [Compound VI, 6β-acetylthio-N-cyclopropylmethylnormorphine] | (0.93 ± 0.09) | – |
| CC(=O)Oc1ccc2c3c1O[C@H]1[C@H](SC(C)=O)C=C[C@H]4[C@@H](C2)N(CC2CC2)CC[C@@]341.Cl [Compound VII, 3-acetyl-6β-acetylthio-N-cyclopropylmethylnormorphine hydrochloride] | (0.84 ± 0.11) | – |
| CN1CC[C@]23c4c5ccc(O)c4O[C@H]2[C@@H](O)C=C[C@H]3[C@H]1C5.Cl [Morphine hydrochloride, reference compound] | – | (1.03 ± 0.09) |

Like-named read-outs stand apart in the source and are kept apart here.
